Data taken from patent US20190345138A1, “HETEROCYCLIC AMIDES AS KINASE INHIBITORS” (GlaxoSmithKline Intellectual Property Development Limited, priority 2016, published 2019).

Tested on: db/db mice
Test: glucose homeostasis in db/db mice
Type: in vivo, mouse
Conditions: 100 mg/kg/day in chow, non-fasted and fasted, versus normal chow
Description: We therefore investigated the ability of our small molecule RIPK1 inhibitor to improve glucose homeostasis in a diabetic animal model. Mice genetically deficient for the leptin receptor (db/db mice; Jackson Labs, BKS.Cg-Dock7m+/+Leprdb/J) are a widely used animal model of insulin resistance and diabetes. In our study, 4-week old male db/db mice were acclimated for a period of one week. At this point, when the mice were 5 weeks of age, the study was started. Mice were then divided into two group (n=10/group) and baseline measurements of non-fasted blood glucoses (using a glucometer) and body weight were taken. After baseline measurements, one group of mice was fed chow containing RIPK1 inhibitor (100 mg/kg/day, n=10) and the other remained on normal chow (n=10). Animals remained on these diets for 6 weeks. Additional measurements of non-fasted blood glucose and body weight were taken 2 and 4 weeks after study start. At week 8, mice were fasted overnight (16 hours) and fasted blood glucose and body weight were measured on the following day.

Question: For `N#Cc1cc(N2CCC(C(=O)N3N=CC[C@H]3c3cc(F)cc(F)c3)CC2)ncn1` [Example 78, (S)-6-(4-(5-(3,5-difluorophenyl)-4,5-dihydro-1H-pyrazole-1-carbonyl)piperidin-1-yl)pyrimidine-4-carbonitrile], which body weight is on record?
Answer: without altering body weight; also recorded: no difference between groups

“Also recorded” adds a separate entry of the source.
